The results in this text go back to doi:10.1101/2023.08.10.552479.

Amino acid sequences for entries named in this document (tags omitted).
UniProt Q9UN81: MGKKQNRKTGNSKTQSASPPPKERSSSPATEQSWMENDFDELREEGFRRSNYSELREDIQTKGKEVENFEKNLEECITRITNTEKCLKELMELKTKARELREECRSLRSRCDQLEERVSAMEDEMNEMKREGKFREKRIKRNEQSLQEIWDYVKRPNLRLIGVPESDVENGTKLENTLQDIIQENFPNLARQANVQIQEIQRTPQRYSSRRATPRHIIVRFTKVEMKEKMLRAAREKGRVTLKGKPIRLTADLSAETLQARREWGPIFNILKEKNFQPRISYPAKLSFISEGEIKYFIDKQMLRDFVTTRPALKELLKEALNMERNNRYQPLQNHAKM
UniProt Q14974: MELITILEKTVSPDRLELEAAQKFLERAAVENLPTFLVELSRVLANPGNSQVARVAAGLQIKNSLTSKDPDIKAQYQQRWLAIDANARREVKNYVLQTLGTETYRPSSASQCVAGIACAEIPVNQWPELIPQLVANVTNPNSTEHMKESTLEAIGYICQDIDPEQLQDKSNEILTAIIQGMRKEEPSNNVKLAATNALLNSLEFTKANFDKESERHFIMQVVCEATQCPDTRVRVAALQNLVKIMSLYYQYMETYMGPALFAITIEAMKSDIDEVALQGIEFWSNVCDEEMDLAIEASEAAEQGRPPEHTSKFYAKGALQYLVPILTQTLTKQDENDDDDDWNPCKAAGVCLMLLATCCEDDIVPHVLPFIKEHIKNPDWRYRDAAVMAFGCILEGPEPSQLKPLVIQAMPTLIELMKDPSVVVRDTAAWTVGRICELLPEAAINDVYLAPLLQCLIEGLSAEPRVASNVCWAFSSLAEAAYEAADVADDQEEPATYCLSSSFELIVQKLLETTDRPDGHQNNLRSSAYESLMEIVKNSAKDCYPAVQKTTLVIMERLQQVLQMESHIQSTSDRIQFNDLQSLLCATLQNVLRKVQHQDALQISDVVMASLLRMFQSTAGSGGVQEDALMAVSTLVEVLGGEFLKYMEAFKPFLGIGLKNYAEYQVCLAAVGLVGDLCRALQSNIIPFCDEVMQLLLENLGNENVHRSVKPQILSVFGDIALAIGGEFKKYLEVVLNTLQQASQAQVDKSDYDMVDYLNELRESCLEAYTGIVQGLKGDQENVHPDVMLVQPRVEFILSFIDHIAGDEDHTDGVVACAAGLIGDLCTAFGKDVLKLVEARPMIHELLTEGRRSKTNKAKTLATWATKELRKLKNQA
UniProt P20700: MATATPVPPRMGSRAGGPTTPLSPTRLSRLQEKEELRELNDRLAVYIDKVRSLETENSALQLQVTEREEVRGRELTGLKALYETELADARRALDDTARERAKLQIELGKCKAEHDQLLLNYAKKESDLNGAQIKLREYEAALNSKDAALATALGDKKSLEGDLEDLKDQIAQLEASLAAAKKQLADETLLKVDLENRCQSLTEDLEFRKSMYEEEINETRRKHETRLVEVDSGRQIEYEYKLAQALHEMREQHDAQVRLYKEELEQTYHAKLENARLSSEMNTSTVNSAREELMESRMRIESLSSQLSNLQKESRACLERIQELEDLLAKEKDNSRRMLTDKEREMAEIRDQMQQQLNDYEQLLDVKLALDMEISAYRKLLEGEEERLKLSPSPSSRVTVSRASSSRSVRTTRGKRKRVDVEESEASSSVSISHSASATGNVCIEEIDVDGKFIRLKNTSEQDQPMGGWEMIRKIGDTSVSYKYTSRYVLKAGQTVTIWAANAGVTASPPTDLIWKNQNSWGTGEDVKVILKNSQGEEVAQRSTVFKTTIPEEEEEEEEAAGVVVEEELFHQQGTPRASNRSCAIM
UniProt P49790: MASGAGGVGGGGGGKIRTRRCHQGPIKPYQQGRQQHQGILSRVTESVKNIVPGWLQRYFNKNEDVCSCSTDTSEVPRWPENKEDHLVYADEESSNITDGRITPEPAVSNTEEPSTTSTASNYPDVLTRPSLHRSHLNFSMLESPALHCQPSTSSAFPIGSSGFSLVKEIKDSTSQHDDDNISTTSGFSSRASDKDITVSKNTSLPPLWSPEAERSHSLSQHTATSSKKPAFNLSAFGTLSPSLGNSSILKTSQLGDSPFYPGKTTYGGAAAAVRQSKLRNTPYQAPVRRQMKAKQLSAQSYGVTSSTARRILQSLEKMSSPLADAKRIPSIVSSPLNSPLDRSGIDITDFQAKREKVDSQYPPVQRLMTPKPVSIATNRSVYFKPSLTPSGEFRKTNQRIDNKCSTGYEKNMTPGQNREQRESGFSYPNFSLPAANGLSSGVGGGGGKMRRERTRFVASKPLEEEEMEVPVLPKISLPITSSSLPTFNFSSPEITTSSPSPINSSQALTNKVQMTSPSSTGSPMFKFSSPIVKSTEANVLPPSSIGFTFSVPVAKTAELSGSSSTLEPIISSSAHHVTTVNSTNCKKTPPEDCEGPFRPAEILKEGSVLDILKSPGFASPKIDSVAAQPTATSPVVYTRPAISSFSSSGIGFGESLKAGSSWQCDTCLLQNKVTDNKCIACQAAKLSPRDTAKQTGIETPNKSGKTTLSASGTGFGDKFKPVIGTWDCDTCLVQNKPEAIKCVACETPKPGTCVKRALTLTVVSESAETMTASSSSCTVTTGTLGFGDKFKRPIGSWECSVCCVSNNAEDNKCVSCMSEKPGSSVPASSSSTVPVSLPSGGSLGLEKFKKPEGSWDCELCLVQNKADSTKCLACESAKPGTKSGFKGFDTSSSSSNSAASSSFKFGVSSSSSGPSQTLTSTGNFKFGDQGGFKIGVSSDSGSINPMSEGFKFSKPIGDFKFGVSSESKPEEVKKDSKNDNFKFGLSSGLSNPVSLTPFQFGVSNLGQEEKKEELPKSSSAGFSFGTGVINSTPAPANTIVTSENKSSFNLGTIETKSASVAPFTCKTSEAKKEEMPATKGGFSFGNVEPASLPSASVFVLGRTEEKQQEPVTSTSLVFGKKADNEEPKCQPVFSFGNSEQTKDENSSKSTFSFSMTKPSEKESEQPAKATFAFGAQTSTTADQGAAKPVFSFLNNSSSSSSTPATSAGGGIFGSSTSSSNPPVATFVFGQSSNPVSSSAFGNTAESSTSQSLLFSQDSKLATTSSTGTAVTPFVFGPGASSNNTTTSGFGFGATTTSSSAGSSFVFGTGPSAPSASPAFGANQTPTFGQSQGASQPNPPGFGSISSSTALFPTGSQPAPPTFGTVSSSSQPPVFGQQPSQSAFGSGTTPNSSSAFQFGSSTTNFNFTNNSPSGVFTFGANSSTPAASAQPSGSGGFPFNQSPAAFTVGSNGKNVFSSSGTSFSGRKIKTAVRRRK

Assay [1] addresses LINE-1 encoded ORF1p (human (endogenous in LUHMES)) (UniProt Q9UN81). Nature of the assay: proximity ligation.
For assay [2] the target is unchanged. Nature of the assay: co-IP.

Results are given in words; binding and its absence hold for the method and conditions named. In cells and extracts the contact can be indirect. Some results given as binding are weak or reduced against the parent protein; the word gives no strength.

For KPNB1 (from UniProt Q14974 1-876), the binding entry in assay [1] is given as “binds”. Consider Lamin B1 (from UniProt P20700 1-586), for which the binding entry in assay [1] and in assay [2] was “binds” in each case. As to NUP153 (from UniProt P49790 1-1475), in assay [1], the binding result is “binds”.
